These are yes or no findings as the source states them, for the method shown. In cells and extracts the contact can be indirect. Some binding calls cover weakened binding; strength is not graded here.
Target: Nuclear receptor subfamily 4, group A, member 2 (NR4A2) (UniProt Q07917)
Assay: co-IP; H9c2 cells transfected with NR4A2 overexpression plasmid or negative control plasmid, then ischemia treatment (serum deprivation); lysate in IP lysis buffer incubated with protein A/G agarose beads and GFP antibody at 4 °C overnight; GFP and p53 detected by western blot

The chains behind the UniProt entries cited, without tags or fusion partners.
UniProt Q07917: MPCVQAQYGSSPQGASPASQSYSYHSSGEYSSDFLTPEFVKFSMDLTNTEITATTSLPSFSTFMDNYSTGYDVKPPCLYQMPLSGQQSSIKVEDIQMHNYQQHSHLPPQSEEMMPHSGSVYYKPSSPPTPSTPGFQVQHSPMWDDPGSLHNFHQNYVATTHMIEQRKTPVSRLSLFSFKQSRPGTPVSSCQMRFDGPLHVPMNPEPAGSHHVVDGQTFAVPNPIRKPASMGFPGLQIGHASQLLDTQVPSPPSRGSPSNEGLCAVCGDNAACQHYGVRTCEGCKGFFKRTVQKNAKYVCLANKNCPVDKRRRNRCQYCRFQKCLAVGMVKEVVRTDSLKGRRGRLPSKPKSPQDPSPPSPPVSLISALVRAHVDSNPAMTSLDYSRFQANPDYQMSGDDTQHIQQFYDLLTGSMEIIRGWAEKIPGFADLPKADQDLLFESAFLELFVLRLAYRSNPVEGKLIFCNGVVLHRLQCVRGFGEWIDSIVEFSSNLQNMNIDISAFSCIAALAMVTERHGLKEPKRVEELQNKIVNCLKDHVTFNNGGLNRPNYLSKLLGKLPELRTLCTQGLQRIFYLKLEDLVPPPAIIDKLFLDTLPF
UniProt P10361: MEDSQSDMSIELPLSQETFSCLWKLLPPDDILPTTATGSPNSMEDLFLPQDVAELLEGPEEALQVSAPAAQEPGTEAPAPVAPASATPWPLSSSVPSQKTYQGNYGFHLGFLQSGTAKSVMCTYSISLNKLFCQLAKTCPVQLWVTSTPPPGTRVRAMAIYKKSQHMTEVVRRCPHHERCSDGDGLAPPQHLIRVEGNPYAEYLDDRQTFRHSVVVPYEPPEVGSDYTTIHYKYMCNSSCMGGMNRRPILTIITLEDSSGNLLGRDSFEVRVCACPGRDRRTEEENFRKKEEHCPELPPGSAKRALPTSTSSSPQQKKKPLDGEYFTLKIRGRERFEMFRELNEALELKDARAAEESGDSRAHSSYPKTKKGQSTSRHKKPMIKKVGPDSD

binding: binds
Substance: p53 (from UniProt P10361 1-391)
